Data on one compound can be found in paper PMC7822115 (Viruses, 2020).

The nature of data set [1]: in vitro. To be noted: African green monkey.
Data set [2] can be described thus: in vitro. To be noted: human.
The test system of the next data set is Vero cells. To be noted: African green monkey.

Regarding `O=C(O)c1cn(C2CC2)c2cc(N3CCNCC3)c(F)cc2c1=O` [Ciprofloxacin, ciprofloxacin], the “Cellular viability / toxicity compared to the media control (in words)” value in the data set on A549/ACE2 cells was “did not impact”. The CC50 in the data set “in vitro [1]” and in the data set “in vitro [2]” was above 600 µM throughout. Moreover, in the data set with Vero cells, the “Concentration at which cellular toxicity was observed” value came out at 600 µM.
